Among all 580,000 compounds or so, about 6,100 (1.1%) were called active. The inconclusive results got no clear call from the source; some entries with a clear call stand among them for comparison. The call rests on the fitted dose curve; in most records, active means well fitted inhibition curve with a large enough effect; inconclusive means small, poorly fitted or top-dose-only effect, or another doubt; inactive means no such curve, though single readings can be large or run the other way. A potency beside an inconclusive call is a rough fit, not a confirmed value.
Molecular target: Polyunsaturated fatty acid lipoxygenase ALOX12 (Homo sapiens) (UniProt P18054)
Assay: Primary qHTS assay for inhibitors of human arachidonate 12S-lipoxygenase (ALOX12): Round 2
Details: purified 12hLO, xylenol orange hydroperoxide absorbance; activity change, negative = inhibition: at 108 µM (top of the series) unless noted
Summary of the method: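 Purified human 12hLO (150 nM final) in 25 mM Hepes, 0.01% Triton X-100, pH 7.0 was preincubated 15 min at room temperature with compound. Then 40 uM arachidonic acid was added, 30 min. Hydroperoxide was read by Fe-XO absorbance ratio 573/405 nm.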
On the % scale 0 is the no-effect control and ±100 the full control effect; potency means the concentration at half of the fitted maximal effect.

The chains behind the UniProt entries cited, without tags or fusion partners. Where a name states a change or a piece, a line headed by the entry shows the natural chain unless it says otherwise.
UniProt P18054: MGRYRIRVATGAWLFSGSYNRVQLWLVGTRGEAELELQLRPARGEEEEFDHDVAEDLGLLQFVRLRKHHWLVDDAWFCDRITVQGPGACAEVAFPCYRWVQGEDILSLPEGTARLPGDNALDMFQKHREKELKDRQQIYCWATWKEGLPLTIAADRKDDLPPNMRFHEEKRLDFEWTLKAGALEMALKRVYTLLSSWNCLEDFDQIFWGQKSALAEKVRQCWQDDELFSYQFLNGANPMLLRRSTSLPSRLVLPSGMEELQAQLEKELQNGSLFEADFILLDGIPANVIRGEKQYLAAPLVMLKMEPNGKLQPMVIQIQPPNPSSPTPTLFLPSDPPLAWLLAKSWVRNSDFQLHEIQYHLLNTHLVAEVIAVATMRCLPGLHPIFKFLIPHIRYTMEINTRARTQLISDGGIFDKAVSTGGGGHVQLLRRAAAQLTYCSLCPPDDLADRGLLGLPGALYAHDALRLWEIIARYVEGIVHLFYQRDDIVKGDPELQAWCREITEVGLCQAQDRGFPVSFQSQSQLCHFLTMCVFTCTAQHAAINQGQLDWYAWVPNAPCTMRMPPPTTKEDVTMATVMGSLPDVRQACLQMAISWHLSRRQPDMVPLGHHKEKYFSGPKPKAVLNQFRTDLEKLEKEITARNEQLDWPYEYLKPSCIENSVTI

SMILES	Potency	activity change, negative = inhibition
COC(=O)Cc1c(C)c2ccc(OCc3cccc(Cl)c3)c(C)c2oc1=O	inactive	–
Nc1c(C=C2C=CC(=O)C=C2)c(=O)nc2snc(SCc3ccccc3)n12	–	inconclusive: -30.7% [inhibitor]
Cc1ccc(CSc2nnc3[nH]c(=O)cc(-c4ccccc4)n23)cc1	inconclusive: 31.6 µM [inhibitor, partial curve, poor fit]	–
COc1ccc(OC)c(C(=O)COC(=O)Cc2ccc(Cl)cc2)c1	inconclusive: 3.16 µM [inhibitor, full curve, poor fit]	–
Cc1ccc(C(=O)NC(=S)NCC2CCCO2)cc1[N+](=O)[O-] (centres undefined)	inconclusive: 11.2 µM [inhibitor, partial curve, poor fit]	–
CCOc1ccc(NC(=O)NC(C)CC)cc1 (centres undefined)	inactive	–
COc1ccc(OC)c(S(=O)(=O)Nc2ccccc2C(=O)N2CCCCC2)c1	inconclusive: 126 µM [inhibitor, single point]	–
O=C(COC(=O)c1cccnc1Nc1ccccc1F)NCc1ccc2c(c1)OCO2	inconclusive: 100 µM [inhibitor, single point]	–
O=C(C1CCCN(Cc2cccc3ccccc23)C1)N1CCc2ccccc2C1 (centres undefined)	active: 0.631 µM	–
COC(=O)[C@]1(C)N[C@H](CN(C)C(=O)Nc2ccc(Cl)cc2)[C@@H]2C(=O)N(C)C(=O)[C@@H]21	inconclusive: 44.7 µM [inhibitor, partial curve, poor fit]	–
COc1ccc(S(=O)(=O)N(C)C[C@@H]2OCc3cn(nn3)CCCC(=O)N([C@H](C)CO)C[C@H]2C)cc1	inactive	–
Cc1ccc(C(=O)Nc2cccc(S(=O)(=O)N(C)c3ccccc3)c2)o1	inactive	–
COc1cccc(CN2C(=O)CCCCC2C(=O)NCc2cn[nH]c2C)c1 (centres undefined)	inconclusive: 50.1 µM [inhibitor, partial curve, poor fit]	–
Cc1ccc(CN(C(=O)Cn2nnc3ccccc32)C(C(=O)NCc2ccco2)c2ccc(C)o2)cc1 (centres undefined)	inactive	–
CCn1nccc1C(=O)N1CCC(N2CC3CC(C2)[C@H]2CCCC(=O)N2C3)CC1 (some centres undefined)	inconclusive: 39.8 µM [inhibitor, single point]	–
O=C1Nc2ccccc2OCC12CCN(Cc1ccc(F)cc1)CC2	inactive	–
O=C(Nc1ccccc1)C(Cc1cccs1)c1nn[nH]n1 (centres undefined)	inconclusive: 35.5 µM [inhibitor, partial curve, poor fit]	–
Cc1cccc(NC(=O)CN2C(=O)NC3(CCC(C)CC3)C2=O)c1C (centres undefined)	inactive	–
Cc1nc2ccccc2c2c1C(=O)N(c1cccc(C(=O)O)c1)C2=O	inconclusive: 100 µM [inhibitor, partial curve, poor fit]	–

Another view of 2 compounds above.
COc1ccc(OC)c(S(=O)(=O)Nc2ccccc2C(=O)N2CCCCC2)c1
  Potency: inconclusive: 126 µM [inhibitor, single point]
O=C(COC(=O)c1cccnc1Nc1ccccc1F)NCc1ccc2c(c1)OCO2
  Potency: inconclusive: 100 µM [inhibitor, single point]

Source: PubChem BioAssay AID1671190 (National Center for Advancing Translational Sciences (NCATS), 2021)
